Taken from: PubChem BioAssay AID686938 (Drosophila RNAi Screening Center, 2013)
Assay: 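Knock-downs reducing store-operated calcium influx in Drosophila cells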 (primary screen). Cells: Drosophila S2R+ cells. Reagent: long dsRNA against Drosophila genes, about 0.25 µg dsRNA per well, roughly 10,000 cells. Timing: 5 days of knock-down before the calcium assay. Treatment: thapsigargin (SERCA pump blocker) to empty calcium stores; entry signal taken 4 min after adding it. Measurement: 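Per-well fluo-4 fluorescence in two replicates, unnormalised, measured in resting cells and 4 min after store depletion by the SERCA blocker thapsigargin; ratio of the two present in few wells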. Direction: calcium entry signal: higher = stronger calcium signal after store depletion; resting calcium signal: higher = higher resting calcium signal. Rule for the call: 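Called when the plate z-score of the entry-to-rest ratio, mean of duplicates, falls below −3; wells with low overall dye signal (Fmax z below −2) or more than five off-targets excluded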. Meaning of the calls: active = strongly reduced calcium entry; inactive = no strong reduction.
In all, the deposit lists about 23,000 reagents; shown is an unselected part of those with a known target gene and a result. Of all reagents, 75 (0.33%) got an active call. 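Raw plate signals without normalisation; calls rest on plate z-scores that were not deposited; ratio present for only 364 wells.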 Reagent sequences are not shown. Not stated in the record: the dose of the treatment.

The opening 2 entries, ahead of the listing:
| gene | dsRNA | calcium entry signal, replicate 1 (fluorescence units) | calcium entry signal, replicate 2 (fluorescence units) | resting calcium signal, replicate 1 (fluorescence units) | resting calcium signal, replicate 2 (fluorescence units) | Outcome |
| --- | --- | --- | --- | --- | --- | --- |
| Unr (Upstream of N-ras) | DRSC10761 | 3.68e7 | 3.25e7 | 2.48e7 | 1.57e7 | inactive |
| Unr (Upstream of N-ras) | DRSC22959 | 4.23e7 | 3.17e7 | 1.96e7 | 1.42e7 | inactive |

The list itself, from the first entry:
| gene | dsRNA | calcium entry signal, replicate 1 (fluorescence units) | calcium entry signal, replicate 2 (fluorescence units) | resting calcium signal, replicate 1 (fluorescence units) | resting calcium signal, replicate 2 (fluorescence units) | Outcome |
| --- | --- | --- | --- | --- | --- | --- |
| Unr (Upstream of N-ras) | DRSC10761 | 3.68e7 | 3.25e7 | 2.48e7 | 1.57e7 | inactive |
| Unr (Upstream of N-ras) | DRSC22959 | 4.23e7 | 3.17e7 | 1.96e7 | 1.42e7 | inactive |
| Tango11 (Transport and Golgi organization 11) | DRSC03890 | 2.20e7 | 4.56e7 | 1.07e7 | 1.95e7 | inactive |
| Tango11 (Transport and Golgi organization 11) | DRSC03892 | 2.07e7 | 3.76e7 | 9.15e6 | 1.67e7 | inactive |
| CR13656 (pseudo) | DRSC13705 | 2.87e7 | 3.76e7 | 1.39e7 | 1.80e7 | inactive |
| CR13656 (pseudo) | DRSC14656 | 3.31e7 | 5.16e7 | 1.81e7 | 2.18e7 | inactive |
| Mad | DRSC00759 | 2.62e7 | 2.27e7 | 1.38e7 | 1.12e7 | inactive |
| CG10834 | DRSC03693 | 5.10e7 | 5.30e7 | 2.47e7 | 2.28e7 | inactive |
| CG42841 | DRSC07962 | 3.57e7 | 4.48e7 | 1.78e7 | 2.04e7 | inactive |
| Fdx2 (Ferredoxin 2) | DRSC08306 | 4.36e7 | 3.52e7 | 2.48e7 | 1.66e7 | inactive |
| CG13829 | DRSC14679 | 4.04e7 | 7.52e7 | 1.95e7 | 2.99e7 | inactive |
| ytr (yantar) | DRSC04306 | 2.47e7 | – | 1.22e7 | – | inactive |
| ytr (yantar) | DRSC22073 | 3.23e7 | 6.67e7 | 1.49e7 | 3.32e7 | inactive |
| mtTFB2 (mitochondrial transcription factor B2) | DRSC15519 | 1.76e7 | 2.44e7 | 9.53e6 | 1.20e7 | inactive |
| CG30265 | DRSC21592 | 2.89e7 | 3.05e7 | 1.39e7 | 1.33e7 | inactive |
| CG15249 | DRSC17978 | 3.85e7 | 4.93e7 | 1.87e7 | 2.48e7 | inactive |
| Eaat2 (Excitatory amino acid transporter 2) | DRSC00032 | 2.51e7 | 3.32e7 | 1.39e7 | 1.52e7 | inactive |
| Eaat2 (Excitatory amino acid transporter 2) | DRSC00749 | 3.66e7 | – | 2.04e7 | – | inactive |
| Or42b (Odorant receptor 42b) | DRSC04913 | 4.55e7 | 4.72e7 | 2.22e7 | 1.99e7 | inactive |
| CG3347 | DRSC00597 | 3.56e7 | 2.94e7 | 1.61e7 | 1.28e7 | inactive |
| mRpL11 (mitochondrial ribosomal protein L11) | DRSC15482 | 2.84e7 | 4.76e7 | 1.38e7 | 5.65e7 | inactive |
| smog | DRSC00334 | 3.50e7 | 3.52e7 | 1.70e7 | 1.61e7 | inactive |
| smog | DRSC00335 | 3.79e7 | 4.10e7 | 1.82e7 | 1.83e7 | inactive |
| smog | DRSC23053 | 4.55e7 | 3.40e7 | 2.45e7 | 1.63e7 | inactive |
